# PubChem BioAssay AID652243, Drosophila RNAi Screening Center | 2013
# Aim: 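Fly regulators of androgen-dependent reporter output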 (primary screen)
# Cell system: Drosophila S2R+ cells
# Reagent: long dsRNA against Drosophila genes
# Timing: 72 h (48 h, then 24 h hormone)
# Treatment: synthetic androgen R1881 at 10 nM for 24 h
# Read-out: 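Firefly light from an androgen-responsive reporter and Renilla control light per well, raw and unnormalised, for each of two replicates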
# Direction: firefly reporter light: higher = more light from androgen-responsive reporter; Renilla control light: higher = more constitutive control signal (cell number, transfection)
# Active means: 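Across duplicate plates, a knock-down whose log firefly/Renilla ratio shifted a set fold down or up from the GFP/LacZ control mean was a hit; the downward cut appears as both 1.5 and 3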
# Calls: active = hit: reporter lowered or raised; inactive = no hit
# In all, the deposit lists about 24,000 reagents; this is an unselected part of those with a known target gene and a result. Over the whole deposit, 246 (1%) are marked active. 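Plates not normalised; calls are printed but the firefly/Renilla ratio behind them is not deposited; fold cut for lowering reported inconsistently.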 The raw values are shown without normalisation. A plus sign joins genes that one reagent is predicted to hit. Reagent sequences are not shown. Not stated in the record: the amount of reagent.
gene,PubChem SID,"firefly reporter light, replicate 1","firefly reporter light, replicate 2","Renilla control light, replicate 1","Renilla control light, replicate 2",call
CG46441,SID104195353,94341,95593,1.34e6,1.25e6,inactive
CG46441,SID104203325,8.14e5,8.51e5,1.17e6,1.11e6,inactive
bsk,SID104183291,7.07e5,7.95e5,2.03e6,1.77e6,inactive
bsk,SID104214171,,,,,inactive
bsk,SID104214172,,,,,inactive
Arpc4,SID104182709,1.43e5,1.62e5,1.28e6,1.20e6,inactive
Arpc4,SID104208152,3.29e5,2.40e5,9.11e5,9.11e5,inactive
CG31600,SID104201980,5.70e5,6.23e5,1.80e6,1.75e6,inactive
CG31600,SID104208640,6.10e5,8.79e5,1.30e6,1.19e6,inactive
CG8568,SID104199905,78733,1.36e5,4.64e5,7.26e5,inactive
CG8568,SID104205231,4.08e5,4.07e5,6.31e5,5.40e5,inactive
Phs,SID104190619,59339,54987,5.84e5,2.56e5,inactive
Phs,SID104208258,4.58e5,4.79e5,1.51e6,1.35e6,inactive
cert,SID104189466,1.10e6,9.63e5,1.96e6,2.19e6,inactive
cert,SID104214365,,,,,inactive
cert,SID104214366,,,,,inactive
CG12206,SID104203509,1.09e6,1.34e6,6.60e5,6.75e5,inactive
CG9121,SID104182934,67954,89419,1.13e6,7.83e5,inactive
PICK1,SID104182728,2.47e5,1.96e5,1.74e6,1.96e6,inactive
PH4alphaSG2,SID104194829,1.75e5,2.71e5,2.15e6,3.03e6,inactive
Madm,SID104191921,60988,98682,1.77e6,2.00e6,inactive
Madm,SID104204543,3.33e5,5.11e5,7.08e5,7.86e5,inactive
Madm,SID104214358,,,,,inactive
msk,SID104191132,6.51e5,6.33e5,1.49e6,2.02e6,inactive
msk,SID104202949,3.81e5,3.62e5,4.95e5,4.97e5,inactive
CG14435,SID104202639,6.87e5,6.77e5,9.78e5,1.43e6,inactive
CG1309,SID104188094,1.28e6,7.29e5,1.66e6,1.04e6,inactive
Menl-2 + Menl-1,SID104187261,1.03e5,1.07e5,2.59e6,2.59e6,inactive
Menl-2 + Menl-1,SID104187262,46312,41057,7.78e5,7.78e5,inactive
Menl-2 + Menl-1,SID104207559,8.50e5,8.75e5,1.49e6,1.36e6,inactive
Task6,SID104196322,1.97e5,2.19e5,1.92e6,2.34e6,inactive
Akh,SID104187930,3.67e5,2.85e5,3.34e6,2.04e6,inactive
Akh,SID104206977,2.54e5,5.13e5,4.40e5,1.16e6,inactive
CG18213,SID104195108,1.96e5,2.44e5,3.09e6,3.52e6,inactive
GstD3,SID104195363,1.07e5,1.39e5,2.59e6,2.54e6,inactive
GstD3,SID104203378,4.12e5,4.24e5,5.31e5,5.35e5,inactive
RpS19b,SID104195565,1.14e5,1.16e5,1.40e6,1.29e6,inactive
CG13126,SID104182014,1.82e5,1.33e5,1.09e6,1.11e6,inactive
CG13126,SID104206164,2.60e5,2.52e5,8.00e5,9.52e5,inactive
CG17290,SID104186454,92508,86108,1.36e6,1.36e6,inactive
CG17290,SID104205663,2.68e5,2.06e5,8.54e5,2.83e5,inactive
Fbp2,SID104183119,7.18e5,8.77e5,1.38e6,2.02e6,inactive
Fbp2,SID104207580,5.45e5,5.79e5,1.03e6,1.20e6,inactive
Pdrg1,SID104207029,5.59e5,6.41e5,6.62e5,1.20e6,inactive
promL,SID104188525,8.72e5,1.16e6,1.61e6,1.56e6,inactive
Apt1,SID104190140,1.87e5,91716,2.27e6,1.13e6,inactive
Ptp69D,SID104191050,2.54e5,1.79e5,3.07e6,2.20e6,inactive
Ptp69D,SID104214267,,,,,inactive
Ptp69D,SID104214268,,,,,inactive
ODA-Dnal1,SID104187062,3.71e5,2.69e5,2.52e6,2.06e6,inactive
ODA-Dnal1,SID104206803,2.98e5,5.17e5,1.24e6,2.00e6,inactive
CG9168,SID104188425,64459,60238,8.02e5,8.68e5,inactive
CG14258,SID104194545,1.86e5,2.07e5,2.78e6,3.07e6,inactive
Tsp5D,SID104198172,4.04e5,4.85e5,3.25e6,2.81e6,inactive
CG14245,SID104194532,2.36e5,2.72e5,2.91e6,3.51e6,inactive
Catsup,SID104183080,1.10e5,94913,8.87e5,8.33e5,inactive
Catsup,SID104204271,1.06e6,8.29e5,1.45e6,1.07e6,inactive
trn,SID104191199,2.27e5,3.08e5,2.50e6,2.43e6,inactive

As entered above.
For “Renilla control light, replicate 1”, CG46441 [SID104195353] reads 1.34e6
Under “Renilla control light, replicate 1”, CG14245 [SID104194532] shows 2.91e6
For “Renilla control light, replicate 2”, CG17290 [SID104186454] has 1.36e6
Value of Ptp69D [SID104214268] under “call”: inactive
Entry of Akh [SID104206977] under “Renilla control light, replicate 2”: 1.16e6
Value of bsk [SID104214172] under “call”: inactive
